Biological target: T1, human aromatase (Homo sapiens, UniProt P11511)
T1 construct: The JEG-3 cell line, derived from a human placental choriocarcinoma, is intrinsically very rich in human aromatase; endogenous in cells; host or cells: JEG-3 (human placental choriocarcinoma)
T1 sequence (P11511 1-503): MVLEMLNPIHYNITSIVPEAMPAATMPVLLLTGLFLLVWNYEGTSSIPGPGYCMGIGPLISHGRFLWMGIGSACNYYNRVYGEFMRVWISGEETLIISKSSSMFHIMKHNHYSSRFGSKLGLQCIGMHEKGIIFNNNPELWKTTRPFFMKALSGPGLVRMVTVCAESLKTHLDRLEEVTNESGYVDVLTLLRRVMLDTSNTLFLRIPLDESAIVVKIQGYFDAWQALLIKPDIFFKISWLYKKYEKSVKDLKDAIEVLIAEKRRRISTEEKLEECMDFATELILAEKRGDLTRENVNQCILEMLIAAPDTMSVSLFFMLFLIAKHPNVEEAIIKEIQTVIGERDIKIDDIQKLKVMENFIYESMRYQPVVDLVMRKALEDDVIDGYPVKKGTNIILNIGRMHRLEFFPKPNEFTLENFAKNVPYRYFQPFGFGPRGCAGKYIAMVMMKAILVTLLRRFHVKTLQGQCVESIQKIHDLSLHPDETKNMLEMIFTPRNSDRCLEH
Assay: Inhibition of human aromatase in vitro in JEG-3 cells (3H-water release from 1β-3H-androstenedione)
Type: cell-based
Conditions: 10 nM 1β-3H-androstenedione, 2 h incubation
Procedure: Stocks of JEG-3 cells are grown up to 80% of confluence as monolayers in plastic flasks in minimum Eagle's medium with 1 g/l glucose and 10% decomplemented fetal calf serum at pH 7.4 and 37° C., under a 5% CO2 atmosphere. Then, 24 hours before aromatase activity measurement, JEG-3 cells are distributed for seeding in 96-well microplates (60,000 to 100,000 viable cells in 100 μl of culture medium per well); 24 hours later, microplates are rinsed and fresh medium containing the radioactive aromatase substrate (1β-^3H-androstenedione, 10 nM) is added together with test compounds dissolved with 1% dimethylsulfoxyde in a test concentration range between 10^−11 and 10^−4 M in a total volume of 150 μl.
Two hours after the beginning of the incubation, 100 μl of the supernatants are transferred to homologous new 96-well microplates. A solution of dextran-coated charcoal (1%) is added in each well (100 μl/well); after standing for 10 minutes on ice, microplates are centrifuged (1500 g) for 10 more minutes at 4° C. All steroids, including the radioactive substrate and the newly biosynthesized estrogens, are trapped complexed by the charcoal; only the ^3H-water specifically formed during aromatisation of 1β-^3H-androstenedione, involving a specific oxidative step removing the 1β-^3H, remains in the supernatant at this stage. […]

CC(C)(C#N)c1cc(Cn2cncn2)cc(C(C)(C)C#N)c1 [Anastrozole, anastrozole, reference compound]
IC50: 8.21 ± 1.27 nM

Source: patent publication US6737433B1, “1-N-phenylamino-1H-imidazole derivatives as aromatase inhibitors and pharmaceutical compositions containing them” (Laboratoire Theramex, priority 2002, dated 2004)
